# Test results as given in article PMC5589848.
# Protein sequences, listed by entry. Tags and fused reporters are not part of them. Lines headed by an entry give the natural chain unless they say otherwise; changes in a name come on top.
# UniProt O60479: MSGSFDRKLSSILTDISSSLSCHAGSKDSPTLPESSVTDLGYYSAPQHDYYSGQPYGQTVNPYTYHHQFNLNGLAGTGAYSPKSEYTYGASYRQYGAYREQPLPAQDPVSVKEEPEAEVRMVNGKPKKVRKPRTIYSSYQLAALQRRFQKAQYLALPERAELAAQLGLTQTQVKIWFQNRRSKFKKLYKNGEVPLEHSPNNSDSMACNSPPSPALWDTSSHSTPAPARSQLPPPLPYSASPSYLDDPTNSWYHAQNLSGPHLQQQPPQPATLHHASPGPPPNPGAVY
# UniProt Q8VI67: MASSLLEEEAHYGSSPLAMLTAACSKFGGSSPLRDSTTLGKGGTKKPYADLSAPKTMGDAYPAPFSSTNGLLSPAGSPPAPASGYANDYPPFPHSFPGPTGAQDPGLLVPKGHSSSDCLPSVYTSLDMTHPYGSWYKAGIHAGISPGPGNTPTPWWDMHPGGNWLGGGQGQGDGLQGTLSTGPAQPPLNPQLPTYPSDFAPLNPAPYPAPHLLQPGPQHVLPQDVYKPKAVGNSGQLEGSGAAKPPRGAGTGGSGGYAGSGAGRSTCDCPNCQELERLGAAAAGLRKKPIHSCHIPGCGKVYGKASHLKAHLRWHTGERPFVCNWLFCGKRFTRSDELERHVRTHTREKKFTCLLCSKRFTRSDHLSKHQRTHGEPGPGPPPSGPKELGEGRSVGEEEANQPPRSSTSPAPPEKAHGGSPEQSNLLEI
# Construct, isoform or probe ends are uncertain for at least one entry. For part of these data: Where cells or extracts were used, other partners may take part. At least one verdict was read from the data and is not stated in words by the source.
# Assays:
# Dlx3 (recombinant) = Dlx3 (recombinant) (UniProt O60479); assay: EMSA; details: anti-Dlx3 supershift, cold competitor 100x; EMSA as described previously (binding buffer not given); 5% native polyacrylamide gel in 1x TBE; 100-fold molar excess of unlabeled competitor; recombinant protein; label: 32P
# [1] = biological target: Osx (nuclear extract of MD10-F2 cells) (mouse) (UniProt Q8VI67); assay: EMSA; details: nuclear extract, anti-Osx supershift, cold competitor 100x; EMSA as described previously (binding buffer not given); 5% native polyacrylamide gel in 1x TBE; 100-fold molar excess of unlabeled competitor; protein in an extract; label: 32P
Sequence,binding result (Dlx3 (recombinant)),binding result [1]
GCGATAATTGCGATAATTGCGAAG (double strand) [Dlx3 (Con) Oligo],binds,–
GCTCGCCCCGCCCCGATCTGAAT (double strand) [Osx (Con) Oligo],–,binds
GGGAGTGGGGCGTTATTACAGCC (double strand) [Osx Oligo],–,binds
